No constants are given. Whether binding was seen depends on the method and setting. In cells and extracts the contact can be indirect. Binding calls can cover weak binding; strength is not graded here.
Molecular target: His6-YrbE1B (M. smegmatis) (UniProt A0QNR1)
Test: pull-down

## Rv0513 (from UniProt O33358)
  binding: binds

From paper PMC10517005, “A conserved membrane protein negatively regulates Mce1 complexes in mycobacteria” (Nature Communications, 2023)
